Data on eight molecules can be found in publication PMC11515916.

Protein sequences, listed by entry. Tags and fused reporters are not part of them. Lines headed by an entry give the natural chain unless they say otherwise; changes in a name come on top.
UniProt P17098: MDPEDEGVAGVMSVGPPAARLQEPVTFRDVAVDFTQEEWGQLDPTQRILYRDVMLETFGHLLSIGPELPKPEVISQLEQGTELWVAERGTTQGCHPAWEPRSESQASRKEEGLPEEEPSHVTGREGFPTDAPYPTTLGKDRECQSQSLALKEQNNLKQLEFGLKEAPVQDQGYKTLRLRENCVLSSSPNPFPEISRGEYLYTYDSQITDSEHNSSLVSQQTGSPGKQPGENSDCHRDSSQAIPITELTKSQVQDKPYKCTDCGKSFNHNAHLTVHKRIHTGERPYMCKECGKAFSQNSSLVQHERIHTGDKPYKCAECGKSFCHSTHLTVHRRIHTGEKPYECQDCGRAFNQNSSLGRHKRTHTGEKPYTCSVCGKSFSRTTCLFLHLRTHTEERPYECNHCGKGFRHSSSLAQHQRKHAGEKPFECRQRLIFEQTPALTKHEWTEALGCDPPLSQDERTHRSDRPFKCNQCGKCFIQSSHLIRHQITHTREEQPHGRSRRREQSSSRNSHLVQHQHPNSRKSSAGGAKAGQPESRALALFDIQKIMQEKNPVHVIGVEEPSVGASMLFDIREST
UniProt P84022: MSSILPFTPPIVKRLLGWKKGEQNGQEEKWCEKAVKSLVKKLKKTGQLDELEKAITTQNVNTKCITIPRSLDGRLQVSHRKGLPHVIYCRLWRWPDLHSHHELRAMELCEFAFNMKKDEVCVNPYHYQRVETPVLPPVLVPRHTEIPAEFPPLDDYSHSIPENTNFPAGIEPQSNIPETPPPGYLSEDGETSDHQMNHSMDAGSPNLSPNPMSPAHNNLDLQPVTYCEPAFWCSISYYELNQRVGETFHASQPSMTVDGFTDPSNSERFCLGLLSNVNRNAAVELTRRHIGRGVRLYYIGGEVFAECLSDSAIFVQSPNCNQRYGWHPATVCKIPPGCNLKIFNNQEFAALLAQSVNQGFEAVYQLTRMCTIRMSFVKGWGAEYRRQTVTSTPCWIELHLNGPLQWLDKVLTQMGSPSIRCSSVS

In assay [1] the target is Myc-ZNF8 (UniProt P17098). Description: co-IP; IP with anti-Myc antibody in MDA-MB-231 cells co-transfected with Myc-ZNF8 and Flag-Smad3, with TGF-β1 treatment.
For assay [2], the target named is Myc-ZNF8 (UniProt P17098). The experiment in a line: co-IP; IP with anti-Myc or anti-Flag antibody in HEK293T cells co-transfected with Flag- and Myc-tagged proteins and their deletion mutants or domains.
Another assay addresses Myc-tagged Smad3 (UniProt P84022). The description is as above.
Another assay has as its target His-Smad3 (UniProt P84022). Description: pull-down; Ni-NTA pulldown with His-Smad3, immunoblotting with anti Smad3 and ZNF8 antibodies; both purified. (In general: A western blot detects proteins with antibodies after separation by electrophoresis.)
The target in assay [3] is GST-ZNF8 (UniProt P17098). Description: pull-down; 1 µg GST fusion protein immobilised on Glutathione-Sepharose 4B, incubated with 6× His-tagged protein for 2 hours at 4 °C; 120 mM KCl, 20 mM Tris-HCl pH 7.9, 5 mM MgCl2, 0.2% NP-40; western blot; both purified.
Another assay addresses T1, Flag-SMYD3 (UniProt Q9H7B4).
T1 sequence: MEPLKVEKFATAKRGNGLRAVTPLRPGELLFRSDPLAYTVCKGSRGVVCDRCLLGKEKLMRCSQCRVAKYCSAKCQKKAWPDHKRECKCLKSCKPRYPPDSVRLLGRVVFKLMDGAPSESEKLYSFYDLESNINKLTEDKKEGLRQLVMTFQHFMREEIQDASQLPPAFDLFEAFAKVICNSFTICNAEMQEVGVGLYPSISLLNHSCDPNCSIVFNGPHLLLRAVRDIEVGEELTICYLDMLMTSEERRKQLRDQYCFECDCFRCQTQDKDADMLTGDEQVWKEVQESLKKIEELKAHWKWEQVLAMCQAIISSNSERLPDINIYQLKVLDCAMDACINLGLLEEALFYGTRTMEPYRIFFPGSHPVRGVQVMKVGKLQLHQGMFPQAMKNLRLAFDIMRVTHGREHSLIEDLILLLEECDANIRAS
Description: co-IP; IP with anti-Myc or anti-Flag antibody in HEK293T cells co-transfected with Flag- and Myc-tagged proteins and their deletion mutants or domains.

In assay [4] the target is T2, SMYD3 (endogenous) (human (endogenous in MDA-MB-231)) (UniProt Q9H7B4).
T2 sequence: T1 sequence
The experiment in a line: co-IP; endogenous proteins, IP with SMYD3 antibodies in control and ZNF8 knockout MDA-MB-231 cells; also with activation of the TGF-β pathway.

The target in assay [5] is ZNF8 (endogenous) (human (endogenous in MDA-MB-231, MCF-7, T47D)) (UniProt P17098). Description: co-IP; endogenous proteins, IP with anti-ZNF8 antibodies in MDA-MB-231, MCF-7 and T47D cells; lysis buffer 200 mM KCl, 20 mM Tris-HCl pH 7.9, 0.1% NP-40; overnight at 4 °C.
For assay [6] the target is unchanged. The description is as above. This is another data set of the same source.
Assay [7] deals with GST-ZNF8 (UniProt P17098). Description: pull-down; 1 µg GST fusion protein immobilised on Glutathione-Sepharose 4B, incubated with 6× His-tagged protein for 2 hours at 4 °C; 120 mM KCl, 20 mM Tris-HCl pH 7.9, 5 mM MgCl2, 0.2% NP-40; western blot; both purified. This is another data set of the same source.
Another assay concerns the target GST-Smad3 (UniProt P84022). Described as above.

Read-outs that look alike come from different tables or passages of the source. These are yes or no findings as the source states them, for the method shown. For some assays here: Binding seen in cells or lysates may run through a third protein. Some results given as binding are weak or reduced against the parent protein; the word gives no strength. For some assays here: Tags and fused reporters may be left off the sequences shown.

Take Flag-Smad3 (from UniProt P84022 1-425): the binding entry with Myc-ZNF8 [1] and with Myc-ZNF8 [2] was “binds” in each case.

For Flag-ZNF8 (from UniProt P17098 1-575), the binding result with Myc-tagged Smad3 is “binds”.

GST-ZNF8 (from UniProt P17098 1-575): the binding entry with His-Smad3 is recorded as “binds”.

As for His-Smad3 (from UniProt P84022 1-425), in the assay with GST-ZNF8 [3], the binding result is given as “binds”.

For the molecule Myc-ZNF8 (from UniProt P17098 1-575), in the assay with Flag-SMYD3, the binding result is “binds”.

Regarding “Smad3 (endogenous) (from UniProt P84022 1-425)”, the binding result in assay [4] and in assay [5] was “binds” throughout.

B1: SMYD3 (endogenous) (protein, UniProt Q9H7B4 1-428)
chain: T1 sequence
Turning to B1, in assay [6], the binding result is given as “binds”.

B2: 6× His-tagged SMYD3 (protein, UniProt Q9H7B4 1-428)
chain: T1 sequence
As to B2, the binding result with GST-ZNF8 [7] and with GST-Smad3 was “binds” in each case.
